These are yes or no findings as the source states them, for the method shown. Binding seen in cells or lysates may run through a third protein. Some binding calls cover weakened binding; strength is not graded here. One block for each molecule: values may come before it.
Columns and labels:
[1] = molecular target: actin (S. cerevisiae (endogenous in yeast extract)) (UniProt P60010); test: pull-down; actin captured from total yeast cell lysate by bead-bound bicyclic peptide A18 (F-actin specific), 1.5 h at 4 °C; 50 mM HEPES pH 7.5, 20 mM NaCl, 1 mM EDTA, 0.1% Triton X-100; recovered fractions probed by western blot
[2] = molecular target: actin (S. cerevisiae (endogenous in yeast extract)) (UniProt P60010); test: pull-down; actin captured from total yeast cell lysate by bead-bound bicyclic peptide A15 (F- and G-actin), 1.5 h at 4 °C; 50 mM HEPES pH 7.5, 20 mM NaCl, 1 mM EDTA, 0.1% Triton X-100; recovered fractions probed by western blot

Protein sequences, listed by entry. Tags and fused reporters are not part of them.
UniProt P29469: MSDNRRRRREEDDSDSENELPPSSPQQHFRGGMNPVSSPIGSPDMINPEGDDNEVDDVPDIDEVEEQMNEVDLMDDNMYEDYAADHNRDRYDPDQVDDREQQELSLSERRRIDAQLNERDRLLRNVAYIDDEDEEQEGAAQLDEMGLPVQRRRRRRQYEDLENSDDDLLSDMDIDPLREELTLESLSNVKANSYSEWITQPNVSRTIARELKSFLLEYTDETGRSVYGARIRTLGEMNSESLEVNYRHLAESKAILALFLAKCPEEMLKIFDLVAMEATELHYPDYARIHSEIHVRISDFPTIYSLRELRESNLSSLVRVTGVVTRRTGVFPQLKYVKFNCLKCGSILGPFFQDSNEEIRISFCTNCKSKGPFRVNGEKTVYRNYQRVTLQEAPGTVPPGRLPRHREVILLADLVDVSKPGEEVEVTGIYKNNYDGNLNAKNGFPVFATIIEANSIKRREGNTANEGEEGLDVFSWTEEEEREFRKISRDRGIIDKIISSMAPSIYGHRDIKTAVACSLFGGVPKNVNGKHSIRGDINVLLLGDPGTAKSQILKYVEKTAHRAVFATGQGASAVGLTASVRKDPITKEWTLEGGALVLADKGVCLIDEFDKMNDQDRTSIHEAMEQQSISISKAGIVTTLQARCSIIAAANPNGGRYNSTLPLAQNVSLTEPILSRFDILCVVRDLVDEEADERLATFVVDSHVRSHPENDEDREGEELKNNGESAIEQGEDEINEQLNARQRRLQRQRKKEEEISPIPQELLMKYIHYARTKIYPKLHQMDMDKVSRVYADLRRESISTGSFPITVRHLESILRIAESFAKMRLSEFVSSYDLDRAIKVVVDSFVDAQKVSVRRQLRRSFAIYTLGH

binding [1]: no binding
binding [2]: no binding
Molecule: Mcm2 (from UniProt P29469 1-868)

binding [1]: binds
binding [2]: binds
B1: Apn1 (enzyme, UniProt P22936 1-367)
chain: MPSTPSFVRSAVSKYKFGAHMSGAGGISNSVTNAFNTGCNSFAMFLKSPRKWVSPQYTQEEIDKFKKNCATYNYNPLTDVLPHGQYFINLANPDREKAEKSYESFMDDLNRCEQLGIGLYNLHPGSTLKGDHQLQLKQLASYLNKAIKETKFVKIVLENMAGTGNLVGSSLVDLKEVIGMIEDKSRIGVCIDTCHTFAAGYDISTTETFNNFWKEFNDVIGFKYLSAVHLNDSKAPLGANRDLHERLGQGYLGIDVFRMIAHSEYLQGIPIVLETPYENDEGYGNEIKLMEWLESKSESELLEDKEYKEKNDTLQKLGAKSRKEQLDKFEVKQKKRAGGTKRKKATAEPSDNDILSQMTKKRKTKKE

Reference: PMC11568337
